Results on 62 compounds are retold here after PubChem BioAssay AID493014 (National Center for Advancing Translational Sciences (NCATS), 2011).

This test in a line: qHTS Assay to Find Inhibitors of Chronic Active B-Cell Receptor Signaling. The conditions noted are these: ABC-DLBCL IkBa-CBG/CBR reporter, luminescence ratio (green luciferase fused to IkBa over red control in TMD8 lymphoma cells), 4 h. The method, boiled down: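 TMD8 human ABC-DLBCL cells with doxycycline-inducible IκBα–green luciferase fusion and unfused red luciferase, in 0.5% FBS medium; compounds up to 46 uM, 4 h at 37C. Green/red luminescence ratio, filter-overlap corrected, fitted to concentration-response curves.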
In general terms: Quantitative high-throughput screening tests each substance at several concentrations.

The mark [1] stands for this setting: measured here: CBR red luminescence, cell number.
Where [2] appears, read: measured here: IkBa-CBG green luminescence.

Each structure is given as a SMILES string. The list shows a part of the results. The main result of the screen is listed elsewhere. These columns were measured beside it and carry no call. Compounds called inactive in the main read-out are mostly missing here. Words in brackets tell the shape of the fitted curve; partial curves, single points and poor fits give uncertain potencies.

Turning to `CCN(CC)CCCNc1nc(N)c([N+](=O)[O-])c(NCCO)n1`, the AC50 under setting [1] is 31.6 µM [falling, single point].
Regarding `Cc1cccn2c(=O)nc(SCC(=O)c3ccccc3)nc12`, the AC50 under setting [1] was 1.03 µM [falling, full curve].
Same read-out and setting: as for `CC(=O)Nc1ccc(Cc2nc3c([nH]2)c(=O)n(C)c(=O)n3C)cc1`, the figure is 8.91 µM [falling, partial curve]; as for `[S-]C(=Nc1ccc(Cl)cc1)N[n+]1ccccc1`, 29.1 µM [falling, single point]; as for `O=C(c1cccnc1)N1CCC(Oc2ccc(C(=O)N3CCCCO3)cc2)CC1`, 6.31 µM [rising, single point].
Still for that read-out and setting: as for `COc1ccc(OC)c(/C=C2\S/C(=N/NC(=O)c3ccc4ccccc4c3)NC2=O)c1`, the figure is 18.4 µM [rising, partial curve, poor fit]; as for `Cc1ccc(C)c(-c2nnc(NC(=O)CS(=O)(=O)c3ccccc3)o2)c1`, 29.1 µM [falling, single point]; as for `O=C(Cc1ccc(-c2ccccc2)cc1)OCC(=O)N1CCCC1=O`, 7.94 µM [falling, partial curve].
Take `Cc1cc(N(C)C)c(C#N)c(N2CCCCC2)n1`: under setting [1], the AC50 is 15.8 µM [rising, partial curve, poor fit].
Regarding `O=C(Nc1ccccc1OC(F)F)c1ccccc1`, the concentration at half-maximal activity (AC50) under setting [1] was 25.9 µM [rising, single point].
Consider `CCOC(=O)N1CCc2c(sc(NCc3cccc(F)c3)c2C(=O)Nc2ccc(OCC)cc2)C1`, for which the AC50 under setting [1] is 31.6 µM [falling, single point].
Consider `COc1ccc(C(=O)NCCNc2nc3cc(C)c(C)cc3cc2C)cc1`, for which the AC50 under setting [1] was 3.16 µM [rising, partial curve, poor fit].
On to `O=C(Nc1nnc(-c2cccs2)o1)c1cccc(C(F)(F)F)c1`, for which the concentration at half-maximal activity (AC50) under setting [1] was 11.6 µM [falling, partial curve] and the AC50 under setting [2] was 32.6 µM [falling, partial curve, poor fit].
For the compound `O=C(CNC(=O)c1ccc(Br)o1)Nc1ncccc1O`, under setting [1], the concentration at half-maximal activity (AC50) is 13 µM [falling, partial curve].
As for `COc1ccc(CC(=O)N(C)CC(=O)Nc2c(C)cccc2C)cc1S(=O)(=O)N1CCOCC1`, under setting [1], the AC50 was 29.1 µM [rising, single point].
For the compound `CSc1ccc(Cl)c(C(=O)Nc2nccs2)c1`, the AC50 under setting [1] was 4.47 µM [falling, full curve, poor fit].
Still for that read-out and setting: then `CSCCC(NC(=O)OC(C)(C)C)C(=O)Oc1ccc2c(=O)c(-c3ccc4c(c3)OCCO4)coc2c1` (stereo not given), with 3.98 µM [falling, full curve]; and `COCCNC(=O)C(c1cccs1)N(CCc1ccccc1)C(=O)Cn1nnc2ccccc21` (stereo not given), with 29.1 µM [falling, single point]; and `N#CC1=C(N)NC(SCC(=O)Nc2ccc(Br)cc2)=C(C#N)C12CCCCC2`, with 16.4 µM [falling, single point].
For `O=C(O)CCC(=O)/C=C/c1ccccc1`, the AC50 under setting [1] was 35.5 µM [falling, single point].
`CC(OC(=O)C1CCN(c2ccc(C(F)(F)F)cn2)CC1)C(=O)Nc1cccc([N+](=O)[O-])c1` (stereo not given): the AC50 under setting [1] was 10.3 µM [falling, partial curve, poor fit].
Still for that read-out and setting: as for `O=C1N2c3ccccc3CCc3cccc(c32)C1(O)C(F)(F)F` (stereo not given), the figure is 6.51 µM [falling, single point]; as for `O=c1[nH]c2ccccc2c(O)c1Cc1ccccc1`, 0.631 µM [falling, full curve, poor fit]; as for `CCOC(=O)CNC(=O)c1sc(NC(=O)c2ccccc2F)nc1C`, 10 µM [falling, partial curve, poor fit].
For `COc1ccc(NC(=O)c2cccnn2)cc1`, the concentration at half-maximal activity (AC50) runs as follows: under setting [1], 5.62 µM [falling, single point]; under setting [2], 3.98 µM [rising, partial curve, poor fit].
On to `O=C(NC(=S)Nc1ccc(N2CCCCC2)cc1)c1cccs1`, for which the AC50 under setting [1] was 25.9 µM [rising, partial curve, poor fit].
With `O=[N+]([O-])c1cccc(/C=N/N=C\c2ccccc2)c1`, the AC50 under setting [1] was 2.82 µM [rising, full curve].
In the case of `CCn1c(/C=C2\C(=O)N(C(C)C)c3ccccc32)nc2ccccc2c1=O`, the AC50 under setting [1] is 20 µM [falling, single point].
In the case of `Cc1cc(OCC(=O)Nc2ccc3oc(=O)ccc3c2)ccc1Cl`, the AC50 under setting [1] is 5.62 µM [falling, single point].
On the same count and under the same terms, then `Cc1noc(NC(=O)c2ccc(Cl)cc2)c1Cl`, with 3.55 µM [rising, full curve, poor fit].
The same measure, in the same setting: as for `O=C(N/C=C/c1ccc(Cl)cc1)NCc1ccc(Cl)cc1`, the figure is 4.47 µM [falling, full curve, poor fit]; as for `O=C(C[C@H]1C[C@H](C(=O)N2CCOCC2)[C@@]2(CCC3CCCC3)c3[nH]c4ccc(Cl)cc4c3CCN2C1=O)NCCCn1ccnc1`, 20.6 µM [falling, single point]; as for `O=C(Nc1nnc(Cc2ccc([N+](=O)[O-])cc2)s1)Nc1ccccc1F`, 35.5 µM [rising, single point].
For the compound `O=C(CSc1nnc(-c2cccs2)o1)c1cccs1`, the AC50 under setting [1] was 25.1 µM [falling, single point].
On to `O=C(c1cccs1)N1CCCC(c2nc3c(nnn3Cc3ccccc3)c(=O)[nH]2)C1` (stereo not given), for which the AC50 under setting [1] was 3.55 µM [falling, single point].
Consider `Cn1c(N2CCOCC2)nc2c1c(=O)n(Cc1ccc(Cl)c(Cl)c1)c(=O)n2C`, for which, under setting [1], the AC50 is 6.51 µM [falling, single point].
Consider `CN(C)S(=O)(=O)c1ccc(NC(=O)COC(=O)c2ccccn2)cc1`, for which the AC50 under setting [1] is 6.31 µM [falling, single point].
As to `CCn1c(=O)n(CC)c2cc(NC(=O)c3ccccc3Cl)ccc21`, the AC50 under setting [1] was 10 µM [falling, partial curve].
On to `CCOC(=O)Cc1csc(NC(=O)C(NC(=O)C2CCC(C)CC2)C(C)C)n1` (stereo not given), for which the concentration at half-maximal activity (AC50) under setting [1] is 17.8 µM [falling, single point].
Regarding `CCC(C)C(NC(=O)C1CCC(C)CC1)C(=O)Nc1ccc(OC)cc1OC` (stereo not given), the AC50 under setting [1] is 11.2 µM [rising, partial curve, poor fit].
With `CCn1c(=O)c(C(=O)NC(C)C)c(O)c2ccccc21`, under setting [1], the AC50 was 29.1 µM [rising, single point].
Consider `O=C(Nc1ccc2c(c1)OCCO2)c1cc2sccc2n1Cc1ccccc1`, for which the AC50 under setting [2] was 5.01 µM [rising, full curve, poor fit].
As for `COc1ccccc1C(=O)C1CCCN(C(=O)Nc2ccccc2F)C1` (stereo not given), under setting [1], the AC50 is 5.01 µM [falling, partial curve, poor fit].
As for `Cc1ccc(/C=C/C(=O)Nc2nccs2)o1`, the AC50 under setting [1] was 7.31 µM [falling, partial curve, poor fit].
Consider `CCn1c(SCC(=O)n2c(C)c(C)c3ccccc32)nnc1-c1ccco1`, for which, under setting [1], the concentration at half-maximal activity (AC50) was 32.6 µM [falling, single point].
As for `S=c1nc(-c2cc(Cl)ccc2Cl)[nH][nH]1`, under setting [1], the AC50 is 11.2 µM [falling, partial curve, poor fit].
`NC(=O)CC(NC(=O)c1ccc(Br)cc1)c1ccc(N2CCN(c3ccc(F)cc3)CC2)c([N+](=O)[O-])c1` (stereo not given): the AC50 under setting [1] was 10 µM [falling, single point].
Still for that read-out and setting: then `COc1ccc2nc(-n3c(O)c(C4=c5ccccc5=NC4=O)[nH]c3=S)sc2c1`, with 3.66 µM [falling, partial curve]; and `COc1cc(N=Nc2cccc(S(N)(=O)=O)c2)c2ccccc2c1N`, with 0.251 µM [rising, full curve, poor fit].
As to `Cc1nc2ccc(-c3nc4ccc(N)cc4[nH]3)cc2[nH]1`, the AC50 under setting [1] is 15.8 µM [falling, partial curve, poor fit].
For `c1csc(C2=Nn3c(nnc3-c3ccncc3)SC2)c1`, under setting [1], the AC50 is 0.562 µM [falling, full curve, poor fit].
On the same count and under the same terms, then `O=C(CNC(=O)c1ccccc1O)N/N=C/c1cc(Br)ccc1OC(=O)/C=C/c1ccco1`, with 0.562 µM [falling, partial curve, poor fit].
Take `COc1cc(-c2nn3c(COc4ccccc4)nnc3s2)cc(OC)c1OC`: the AC50 under setting [1] was 1.41 µM [rising, full curve, poor fit].
`CCCCn1c(-c2ccc(F)c(F)c2)nc2cc3[nH]c(=O)c(C(C)C)nc3cc21`: the AC50 under setting [1] was 11.2 µM [falling, partial curve].
Still for that read-out and setting: then `COc1ccc(-c2nnc(Nc3ccc(OC)c(C(=O)N4CCCCC4)c3)c3ccccc23)cc1`, with 29.1 µM [falling, single point]; and `CCCCn1c(N)c(N(CCOC)C(=O)CN2c3ccccc3CC2C)c(=O)[nH]c1=O` (stereo not given), with 10 µM [rising, partial curve, poor fit].
Regarding `CCN(CC)c1ccc(S(=O)(=O)N(CC)CC)cc1NC(=O)C1CCCC1`, the AC50 under setting [1] was 35.5 µM [falling, single point].
`NC1=NC(=O)/C(=C/c2ccc(Cl)cc2Cl)S1`: the AC50 is, setting by setting: under setting [1], 10 µM [falling, partial curve, poor fit]; under setting [2], 17.8 µM [rising, partial curve, poor fit].
Regarding `O=C(NCc1ccco1)C(Cc1ccccc1)N1C(=O)C2C3C=CC(C3)C2C1=O` (stereo not given), the AC50 under setting [1] is 0.731 µM [rising, partial curve, poor fit].
Turning to `COc1ccccc1N(CC(=O)N1CCCCC1)S(=O)(=O)c1ccccc1`, the AC50 under setting [1] is 6.51 µM [rising, single point].
For the compound `Cc1ccc(C)c(-c2nnc(NC(=O)c3ccco3)o2)c1`, the AC50 under setting [1] is 14.6 µM [falling, partial curve, poor fit].
As to `O=C(Cn1nc(-c2cccc(Cl)c2)ccc1=O)Nc1ccc(C(=O)NC2CC2)cc1`, under setting [1], the AC50 was 35.5 µM [rising, single point].

What is called AC50 is the concentration at which the activity in the assay is half-maximal.
